Experimental findings from article PMC9462472 are described below.

No constants are given. Whether binding was seen depends on the method and setting. In cells and extracts the contact can be indirect. Some results given as binding are weak or reduced against the parent protein; the word gives no strength.

For this assay, the target named is T1, dynamin-2 (mouse (endogenous in C2C12 myotubes and mouse muscle)) (UniProt P39054).
T1 sequence: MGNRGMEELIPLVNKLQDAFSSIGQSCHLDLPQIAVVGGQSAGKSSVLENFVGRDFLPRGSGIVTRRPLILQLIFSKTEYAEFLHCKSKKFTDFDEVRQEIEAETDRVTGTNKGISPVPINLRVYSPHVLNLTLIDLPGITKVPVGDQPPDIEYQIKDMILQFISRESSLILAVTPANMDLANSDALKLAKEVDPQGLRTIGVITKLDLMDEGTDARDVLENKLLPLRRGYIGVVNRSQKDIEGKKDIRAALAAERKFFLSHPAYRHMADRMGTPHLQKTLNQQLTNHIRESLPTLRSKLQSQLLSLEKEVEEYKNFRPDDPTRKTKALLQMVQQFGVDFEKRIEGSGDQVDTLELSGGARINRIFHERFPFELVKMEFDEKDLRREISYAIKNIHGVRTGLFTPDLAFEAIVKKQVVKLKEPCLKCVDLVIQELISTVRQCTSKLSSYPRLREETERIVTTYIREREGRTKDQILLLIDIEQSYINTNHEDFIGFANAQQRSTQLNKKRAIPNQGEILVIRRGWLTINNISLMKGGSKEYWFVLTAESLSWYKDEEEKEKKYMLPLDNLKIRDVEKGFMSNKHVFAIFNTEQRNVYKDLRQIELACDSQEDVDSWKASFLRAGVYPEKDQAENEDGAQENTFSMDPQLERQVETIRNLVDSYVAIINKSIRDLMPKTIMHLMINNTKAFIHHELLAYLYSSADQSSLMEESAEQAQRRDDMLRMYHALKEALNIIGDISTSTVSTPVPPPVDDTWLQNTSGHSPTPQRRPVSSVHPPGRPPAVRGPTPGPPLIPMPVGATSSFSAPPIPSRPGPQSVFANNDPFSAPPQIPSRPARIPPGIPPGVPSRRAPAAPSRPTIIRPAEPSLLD
Kind of assay: co-IP; endogenous proteins in lysates of differentiated C2C12 myotubes, soleus and triceps; IP with anti-SPEG or anti-DNM2 antibody at 4°C for 12 to 24 hours, Dynabead Protein G beads, washed 3 times with co-IP buffer with 0.1% CHAPS; immunoblot. (A western blot detects proteins with antibodies after separation by electrophoresis.)

Take “Striated preferentially expressed protein kinase, SPEG-β isoform (from UniProt Q62407-1 1-3262)”: the binding entry is listed as “binds”.
